The results are deposited in PubChem (AID504749; NCATS, 2011).

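A panel of P. falciparum strains inside erythrocytes is exposed to compounds for three days, then a DNA-binding dye reports the amount of parasite DNA.
Each compound was titrated across a series from about 0.000037 to 29 µM.
The number is the fitted AC50, the concentration giving a half-maximal change in signal; a lower value means higher potency, whether the curve shows a decrease or an increase.
Calls follow the curve class and fit quality: every row here is inconclusive, covering signal-raising curves and weak, poorly fitted, partial or highest-dose-only inhibition curves.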

Values are in µM.
All entries here are filed as inconclusive.
These entries are mostly ones the record files as inconclusive; other results of the assay are not listed here.
A potency from a partial, single-point or poor curve is only a rough figure.

structure: CCN(CC)CCOC(=O)C(C)(c1ccccc1)c1ccccc1
tested on / at: CP211
potency (µM): 6.746
curve: inhibitor, partial curve, poor fit

structure: CCN(CC)CCOC(=O)C(C)(c1ccccc1)c1ccccc1
tested on / at: CP269
potency (µM): 6.746
curve: inhibitor, partial curve, poor fit

structure: CCN(CC)CCOC(=O)C(C)(c1ccccc1)c1ccccc1
tested on / at: CP250
potency (µM): 10
curve: inhibitor, single point

structure: CCN(CC)CCOC(=O)C(C)(c1ccccc1)c1ccccc1
tested on / at: DIV14
potency (µM): 6.746
curve: inhibitor, partial curve

structure: CCN(CC)CCOC(=O)C(C)(c1ccccc1)c1ccccc1
tested on / at: AS120
potency (µM): 11.22
curve: inhibitor, partial curve

structure: CCN(CC)CCOC(=O)C(C)(c1ccccc1)c1ccccc1
tested on / at: CP256
potency (µM): 8.912
curve: inhibitor, partial curve

structure: CCN(CC)CCOC(=O)C(C)(c1ccccc1)c1ccccc1
tested on / at: P94_40
potency (µM): 6.31
curve: inhibitor, partial curve

structure: CCN(CC)CCOC(=O)C(C)(c1ccccc1)c1ccccc1
tested on / at: PAD
potency (µM): 5.623
curve: inhibitor, partial curve, poor fit

structure: CCN(CC)CCOC(=O)C(C)(c1ccccc1)c1ccccc1
tested on / at: P93_24
potency (µM): 4.467
curve: inhibitor, partial curve

structure: CCN(CC)CCOC(=O)C(C)(c1ccccc1)c1ccccc1
tested on / at: CP329
potency (µM): 7.569
curve: inhibitor, partial curve, poor fit

structure: CCN(CC)CCOC(=O)C(C)(c1ccccc1)c1ccccc1
tested on / at: CP185
potency (µM): 7.943
curve: inhibitor, partial curve

structure: CCN(CC)CCOC(=O)C(C)(c1ccccc1)c1ccccc1
tested on / at: ATS189
potency (µM): 5.623
curve: inhibitor, partial curve

structure: CCN(CC)CCOC(=O)C(C)(c1ccccc1)c1ccccc1
tested on / at: CP194
potency (µM): 8.492
curve: inhibitor, partial curve

structure: CCN(CC)CCOC(=O)C(C)(c1ccccc1)c1ccccc1
tested on / at: ECU
potency (µM): 8.912
curve: inhibitor, single point

structure: CCN(CC)CCOC(=O)C(C)(c1ccccc1)c1ccccc1
tested on / at: CP266
potency (µM): 0.4775
curve: inhibitor, full curve, poor fit

structure: CCN(CC)CCOC(=O)C(C)(c1ccccc1)c1ccccc1
tested on / at: CP237
potency (µM): 1.413
curve: inhibitor, full curve, poor fit

structure: CCN(CC)CCOC(=O)C(C)(c1ccccc1)c1ccccc1
tested on / at: DIV30
potency (µM): 8.492
curve: inhibitor, partial curve

structure: CCN(CC)CCOC(=O)C(C)(c1ccccc1)c1ccccc1
tested on / at: CP297
potency (µM): 6.012
curve: inhibitor, partial curve

structure: CCN(CC)CCOC(=O)C(C)(c1ccccc1)c1ccccc1
tested on / at: CP291
potency (µM): 6.012
curve: inhibitor, partial curve

structure: CCN(CC)CCOC(=O)C(C)(c1ccccc1)c1ccccc1
tested on / at: CP215
potency (µM): 6.746
curve: inhibitor, partial curve

structure: CCN(CC)CCOC(=O)C(C)(c1ccccc1)c1ccccc1
tested on / at: PC15
potency (µM): 5.623
curve: inhibitor, partial curve

structure: CCN(CC)CCOC(=O)C(C)(c1ccccc1)c1ccccc1
tested on / at: ICS
potency (µM): 10
curve: inhibitor, partial curve

structure: CCN(CC)CCOC(=O)C(C)(c1ccccc1)c1ccccc1
tested on / at: CP305
potency (µM): 5.358
curve: inhibitor, partial curve, poor fit

structure: CCN(CC)CCOC(=O)C(C)(c1ccccc1)c1ccccc1
tested on / at: ATS95
potency (µM): 5.623
curve: inhibitor, partial curve

structure: CCN(CC)CCOC(=O)C(C)(c1ccccc1)c1ccccc1
tested on / at: CP325
potency (µM): 10.69
curve: inhibitor, partial curve, poor fit

structure: CCN(CC)CCOC(=O)C(C)(c1ccccc1)c1ccccc1
tested on / at: CP262
potency (µM): 9.528
curve: inhibitor, single point

structure: CCN(CC)CCOC(=O)C(C)(c1ccccc1)c1ccccc1
tested on / at: CP247
potency (µM): 4.467
curve: inhibitor, partial curve

Some entries from above, unchanged:

* CCN(CC)CCOC(=O)C(C)(c1ccccc1)c1ccccc1 [ATS189] : potency 5.623 µM (inhibitor, partial curve)
* CCN(CC)CCOC(=O)C(C)(c1ccccc1)c1ccccc1 [CP250] : potency 10 µM (inhibitor, single point)
* CCN(CC)CCOC(=O)C(C)(c1ccccc1)c1ccccc1 [CP269] : potency 6.746 µM (inhibitor, partial curve, poor fit)